The list is a part of this screen's results and no random one: it covers a few groups of compounds. Not every dose and run of a compound is shown. T/C: endpoint of the treated group in % of that of the vehicle group. For survival time, this PubChem deposit counts one and a half times the control or more as active, and values a quarter to a half above the control carry no call in these data; other NCI protocols may use other cut-offs. Schedule codes are those of the source, read here as Q, the interval in days (D) or hours (H), X, the number of doses. Some T/C values are marked as having no survivor count here; that says nothing about deaths at the dose.
Tested on: CD2F1 mice, intracerebral P388 leukemia, median survival T/C%
Test: NCI In Vivo Anticancer Drug Screen. Data for tumor model P388 Leukemia (intracerebral) in CD2F1 (CDF1) mice
Settings: T/C endpoint: median survival time, schedule: Q01DX005 (ip), vehicle: suspension in saline, higher T/C = longer survival
Method: The antitumor activity of compounds was measured in mice bearing transplantable tumors. Survival or tumor size were measured and the results are expressed as the measurement made in the treated group (T) divided by the measurement made in the vehicle treated control group (C). The tumor model used in this assay is P388 Leukemia (intracerebral) in CD2F1 (CDF1) mice

With CC(=O)OCC12CCC(C)=CC1OC1C(O)C(OC(C)=O)C2(C)C12CO2 (configuration not stated) the T/C (dose: 2.0 mg/kg/injection) was 124 % of control [survivor count not shown] and the T/C (dose: 4.0 mg/kg/injection) was 144 % of control [survivor count not shown].
